PubChem BioAssay AID256 (DTP/NCI, 2004)
The list shows only some results of the screen, not a fair sample: it gathers tests that were run many times, whatever their T/C, doses with no T/C, and many T/C values between a quarter and a half above the control. Other doses and runs of a compound stand elsewhere. T/C is the treated group as % of the vehicle group. Some doses have a count of surviving animals in place of a T/C: the source files T/C as zero there, which appears to mark a toxic dose or a test without result, not a measured value. Some survivor counts are full or nearly so, which does not show that the dose was tolerated: survival well below the control is almost never listed, so the zero probably covers shortened survival too. Counts of survivors are from the toxicity check (mostly the fifth day) where no day follows; animals may have died later. Schedule codes are those of the source, taken here to give the interval after Q, in days (D) or hours (H), and the number of doses after X. Some entries hold several experiments; the values are given in rising order. For survival time, the PubChem record calls one and a half times the control and up active, and a quarter to a half above the control has no call in these data; cut-offs in other NCI protocols can differ. Some T/C values carry the count of animals alive at the toxicity check (mostly the fifth day); where none is given, no animal had died by that day.

Test system: CD2F1 mice, L1210 leukemia ip, survival T/C
Assay: NCI In Vivo Anticancer Drug Screen. Data for tumor model L1210 Leukemia (intraperitoneal) in CD2F1 (CDF1) mice
Conditions: higher T/C = longer survival
Outline: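 Transplantable tumor in mice; compound-treated vs vehicle-treated groups. Read-out = treated/control ratio of the measured endpoint.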

[1] = T/C endpoint: mean survival time, dose: 400.0 mg/kg/injection, schedule: Q01DX005 (ip), vehicle: water
[2] = T/C endpoint: mean survival time, dose: 400.0 mg/kg/injection, schedule: Q01DX009 (ip), vehicle: saline with Tween-80
[3] = T/C endpoint: mean survival time, dose: 200.0 mg/kg/injection, schedule: Q01DX009 (ip), vehicle: saline with Tween-80
[4] = T/C endpoint: mean survival time, dose: 400.0 mg/kg/injection, schedule: Q04DX003 (ip), vehicle: saline with Tween-80

For `c1ccc(CCNc2ncnc3nc[nH]c23)cc1`, the survivor count [1] was 3 of 3.
With `O=c1[nH]c(=O)n(C2CC(O)C(CO)O2)cc1F` (stereo not given) the T/C (T/C endpoint: mean survival time, dose: 25.0 mg/kg/injection, schedule: Q03HX024 (oral), vehicle: saline) was 131 % of control, the T/C (T/C endpoint: mean survival time, dose: 31.3 mg/kg/injection, schedule: Q01DX009 (ip), vehicle: saline) was 140 % of control and the T/C (T/C endpoint: mean survival time, dose: 31.3 mg/kg/injection, schedule: Q01DX009 (oral), vehicle: saline) was 125 % of control. The T/C (T/C endpoint: mean survival time, dose: 31.3 mg/kg/injection, schedule: Q01DX009 (sc), vehicle: saline) was 135 % of control, the T/C (T/C endpoint: mean survival time, dose: 37.5 mg/kg/injection, schedule: Q01DX007 (ip), vehicle: water) was 126 % of control [5 of 6 alive] and the T/C (T/C endpoint: mean survival time, dose: 37.5 mg/kg/injection, schedule: Q01DX009 (ip), vehicle: water) was 128 % of control. The T/C (T/C endpoint: mean survival time, dose: 40.0 mg/kg/injection, schedule: Q01DX009 (ip), vehicle: saline) was 132 and 148 % of control, the T/C (T/C endpoint: mean survival time, dose: 62.5 mg/kg/injection, schedule: Q01DX005 (ip), vehicle: saline) was 136 % of control and the T/C (T/C endpoint: mean survival time, dose: 62.5 mg/kg/injection, schedule: Q01DX009 (ip), vehicle: saline) was 145 % of control. For the same compound, the T/C (T/C endpoint: mean survival time, dose: 62.5 mg/kg/injection, schedule: Q01DX009 (oral), vehicle: saline) was 143 % of control, the T/C (T/C endpoint: mean survival time, dose: 62.5 mg/kg/injection, schedule: Q01DX009 (sc), vehicle: saline) was 139 % of control and the T/C (T/C endpoint: mean survival time, dose: 80.0 mg/kg/injection, schedule: Q01DX009 (ip), vehicle: saline) was 148 % of control. The T/C (T/C endpoint: mean survival time, dose: 100.0 mg/kg/injection, schedule: Q01DX009 (oral), vehicle: saline) was 126 % of control, the T/C (T/C endpoint: mean survival time, dose: 100.0 mg/kg/injection, schedule: Q03HX008 (oral), vehicle: saline) was 134 % of control and the T/C (T/C endpoint: mean survival time, dose: 100.0 mg/kg/injection, schedule: Q03HX016 (ip), vehicle: saline) was 142 % of control. For the same compound, the T/C (T/C endpoint: mean survival time, dose: 125.0 mg/kg/injection, schedule: Q01DX005 (ip), vehicle: saline) was 146 % of control, the T/C (T/C endpoint: mean survival time, dose: 125.0 mg/kg/injection, schedule: Q01DX009 (ip), vehicle: saline) was 137 % of control and the T/C (T/C endpoint: mean survival time, dose: 125.0 mg/kg/injection, schedule: Q01DX009 (sc), vehicle: saline) was 141 % of control. The T/C (T/C endpoint: mean survival time, dose: 150.0 mg/kg/injection, schedule: Q03DX003 (ip), vehicle: water) was 142 % of control, the T/C (T/C endpoint: mean survival time, dose: 150.0 mg/kg/injection, schedule: Q04DX003 (ip), vehicle: water) was 134 % of control and the T/C (T/C endpoint: mean survival time, dose: 160.0 mg/kg/injection, schedule: Q01DX009 (ip), vehicle: saline) was 126 % of control. The T/C (T/C endpoint: mean survival time, dose: 200.0 mg/kg/injection, schedule: Q04DX003 (oral), vehicle: saline) was 131 % of control, the T/C (T/C endpoint: mean survival time, dose: 250.0 mg/kg/injection, schedule: Q01DX005 (ip), vehicle: saline) was 131 % of control and the T/C (T/C endpoint: mean survival time, dose: 250.0 mg/kg/injection, schedule: Q03HX008 (ip), vehicle: saline) was 136 % of control. For the same compound, the T/C (T/C endpoint: mean survival time, dose: 250.0 mg/kg/injection, schedule: Q03HX016 (ip), vehicle: saline) was 125 % of control, the T/C (T/C endpoint: mean survival time, dose: 320.0 mg/kg/injection, schedule: Q01DX009 (ip), vehicle: saline) was 132 % of control and the survivor count [1] was 6 of 6. The T/C (T/C endpoint: mean survival time, dose: 500.0 mg/kg/injection, schedule: Q01DX001 (ip), vehicle: saline) was 135 % of control, the T/C (T/C endpoint: mean survival time, dose: 500.0 mg/kg/injection, schedule: Q01DX001 (sc), vehicle: saline) was 140 % of control and the T/C (T/C endpoint: mean survival time, dose: 500.0 mg/kg/injection, schedule: Q03HX008 (ip), vehicle: saline) was 142 % of control. For the same compound, the T/C (T/C endpoint: mean survival time, dose: 500.0 mg/kg/injection, schedule: Q04DX003 (ip), vehicle: saline) was 128 % of control, the T/C (T/C endpoint: mean survival time, dose: 800.0 mg/kg/injection, schedule: Q01DX001 (oral), vehicle: saline) was 132 % of control and the T/C (T/C endpoint: mean survival time, dose: 1000.0 mg/kg/injection, schedule: Q01DX001 (ip), vehicle: saline) was 131 % of control. For the same compound, the T/C (T/C endpoint: mean survival time, dose: 1000.0 mg/kg/injection, schedule: Q03HX016 (ip), vehicle: saline) was 143 % of control, the T/C (T/C endpoint: mean survival time, dose: 1000.0 mg/kg/injection, schedule: Q08DX002 (ip), vehicle: saline) was 126 % of control and the T/C (T/C endpoint: median survival time, dose: 240.0 mg/kg/injection, schedule: Q04DX002 (ip), vehicle: saline) was 141 % of control.
With `N#C/C=C1\NC(=O)CS1` the survivor count [2] was 0 of 6.
`Nc1nc(N)c2[nH]c(-c3ccccc3)nc2n1` was tested, and the survivor count (T/C endpoint: mean survival time, dose: 100.0 mg/kg/injection, schedule: Q01DX005 (ip), vehicle: saline with Tween-80) was 5 of 6.
With `COc1cc(OC)c(NC(=O)N2CCN(C)CC2)cc1Cl` the survivor count [3] was 0 of 3.
In the case of `N#CSCc1ccccc1Cl`, the survivor count (T/C endpoint: mean survival time, dose: 20.0 mg/kg/injection, schedule: Q04DX003 (ip), vehicle: saline with Tween-80) is reported as 5 of 6.
In the case of `CCN(CC)CCn1[nH]c2c3ccc(=O)cc3sc3c(NCCN)ccc1c32`, the T/C (T/C endpoint: median survival time, dose: 0.75 mg/kg/injection, schedule: Q01DX009 (ip), vehicle: water) is reported as 144 % of control, the T/C (T/C endpoint: median survival time, dose: 1.56 mg/kg/injection, schedule: Q01DX005 (ip), vehicle: water) is reported as 137 % of control and the survivor count (T/C endpoint: median survival time, dose: 24.0 mg/kg/injection, schedule: Q01DX005 (ip), vehicle: water) is reported as 6 of 6. The survivor count (T/C endpoint: median survival time, dose: 25.0 mg/kg/injection, schedule: Q01DX005 (ip), vehicle: water) was 5 of 6 and 6 of 6.
With `CCc1cc(CC)c(CC)c(Br)c1CC` the survivor count [3] was 3 of 6 and the survivor count [4] was 2 of 6.
With `COc1cccc2c1C(=O)c1c(O)c3c(c(O)c1C2=O)C[C@@](O)(C(C)O)C[C@@H]3OC1CC(N)C(O)C(C)O1` (stereo not given in full) the T/C (T/C endpoint: mean survival time, dose: 1.8 mg/kg/injection, schedule: Q01DX009 (ip), vehicle: saline) was 126 % of control, the T/C (T/C endpoint: mean survival time, dose: 3.0 mg/kg/injection, schedule: Q01DX009 (ip), vehicle: saline) was 132 % of control and the T/C (T/C endpoint: mean survival time, dose: 5.0 mg/kg/injection, schedule: Q01DX009 (ip), vehicle: saline) was 126 % of control. For the same compound, the T/C (T/C endpoint: mean survival time, dose: 5.0 mg/kg/injection, schedule: Q04DX003 (ip), vehicle: saline) was 126 % of control, the T/C (T/C endpoint: mean survival time, dose: 8.0 mg/kg/injection, schedule: Q01DX009 (ip), vehicle: saline) was 133 % of control and the T/C (T/C endpoint: mean survival time, dose: 8.0 mg/kg/injection, schedule: Q04DX003 (ip), vehicle: saline) was 137 % of control. For the same compound, the T/C (T/C endpoint: mean survival time, dose: 13.3 mg/kg/injection, schedule: Q04DX003 (ip), vehicle: saline) was 146 % of control, the T/C (T/C endpoint: mean survival time, dose: 22.2 mg/kg/injection, schedule: Q04DX003 (ip), vehicle: saline) was 136 % of control and the T/C (T/C endpoint: mean survival time, dose: 37.0 mg/kg/injection, schedule: Q04DX003 (ip), vehicle: saline) was 134 % of control.
`CC1CN(Br)C(=O)N(Br)C1=O` (stereo not given) was tested, and the survivor count (T/C endpoint: mean survival time, dose: 300.0 mg/kg/injection, schedule: Q01DX001 (ip), vehicle: saline) was 1 of 6.
`Cc1ccc(S(=O)(=O)NC(=S)c2ccccc2)cc1` was tested, and the survivor count (T/C endpoint: mean survival time, dose: 400.0 mg/kg/injection, schedule: Q01DX001 (ip), vehicle: saline with Tween-80) was 0 of 3.
For `O=C(OCC1OC(n2cc(C(F)(F)F)c(=O)[nH]c2=O)CC1OC(=O)c1ccc([N+](=O)[O-])cc1)c1ccc([N+](=O)[O-])cc1` (stereo not given), the T/C (T/C endpoint: median survival time, dose: 100.0 mg/kg/injection, schedule: Q01DX009 (ip), vehicle: Klucel (hydroxypropylcellulose) (HPC)) was 125 % of control, the T/C (T/C endpoint: median survival time, dose: 200.0 mg/kg/injection, schedule: Q01DX009 (ip), vehicle: Klucel (hydroxypropylcellulose) (HPC)) was 141 % of control and the T/C (T/C endpoint: median survival time, dose: 400.0 mg/kg/injection, schedule: Q01DX009 (ip), vehicle: Klucel (hydroxypropylcellulose) (HPC)) was 137 % of control.
With `NC(N)=N/N=C/c1ccncc1` the survivor count (T/C endpoint: mean survival time, dose: 200.0 mg/kg/injection, schedule: Q04DX002 (ip), vehicle: saline) was 0 of 3 and the survivor count (T/C endpoint: mean survival time, dose: 400.0 mg/kg/injection, schedule: Q04DX002 (ip), vehicle: saline) was 0 of 3.
In the case of `Cc1ccc(CNc2ccccc2)cc1`, the survivor count (T/C endpoint: mean survival time, dose: 100.0 mg/kg/injection, schedule: Q04DX003 (ip), vehicle: other) is reported as 6 of 6.
`CCN1CCCC(Nc2nc(Nc3cc(Cl)cc(Cl)c3)nc3ccc(Cl)cc23)C1` (stereo not given) was tested, and the survivor count (T/C endpoint: mean survival time, dose: 50.0 mg/kg/injection, schedule: Q01DX009 (ip), vehicle: saline with Tween-80) was 1 of 6, the survivor count (T/C endpoint: mean survival time, dose: 100.0 mg/kg/injection, schedule: Q01DX009 (ip), vehicle: saline with Tween-80) was 3 of 6 and the survivor count (T/C endpoint: mean survival time, dose: 200.0 mg/kg/injection, schedule: Q04DX003 (ip), vehicle: saline with Tween-80) was 3 of 6. The survivor count [4] was 0 of 6.
In the case of `CCCCCCCCCCCCCCCCOc1ccc(-c2cc(Cl)c3cc(S(=O)(=O)F)ccc3n2)cc1S(=O)(=O)F`, the survivor count (T/C endpoint: mean survival time, dose: 100.0 mg/kg/injection, schedule: Q04DX003 (ip), vehicle: saline with Tween-80) is reported as 6 of 6 and the survivor count [2] is reported as 2 of 6.
